{"sequences": {"note": "The chains behind the UniProt entries cited, without tags or fusion partners. Where a name states a change or a piece, a line headed by the entry shows the natural chain unless it says otherwise.", "UniProt P98170": "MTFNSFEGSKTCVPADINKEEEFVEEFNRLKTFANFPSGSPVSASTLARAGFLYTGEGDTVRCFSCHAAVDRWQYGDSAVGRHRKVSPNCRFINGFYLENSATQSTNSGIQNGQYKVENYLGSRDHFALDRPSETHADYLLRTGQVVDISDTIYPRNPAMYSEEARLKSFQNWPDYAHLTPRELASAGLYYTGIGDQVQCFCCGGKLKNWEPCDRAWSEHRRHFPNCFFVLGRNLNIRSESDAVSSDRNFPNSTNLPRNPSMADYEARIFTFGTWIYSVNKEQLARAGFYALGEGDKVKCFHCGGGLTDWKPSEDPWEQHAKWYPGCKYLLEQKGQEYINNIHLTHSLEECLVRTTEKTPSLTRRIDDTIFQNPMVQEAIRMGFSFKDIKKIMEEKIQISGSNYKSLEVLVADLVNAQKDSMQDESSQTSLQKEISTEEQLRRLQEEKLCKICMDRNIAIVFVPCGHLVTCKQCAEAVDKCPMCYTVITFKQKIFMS"}, "source": "patent US20050227302A1", "about": "“Induction of apoptosis via ARTS-IAP complexes” (priority 2004, published 2005)", "binders": {"B1": {"name": "GST-ARTS fusion protein (protein, not shown: a dimerising Fc or GST)", "chain": "MIKRFLEDTTDDGELSKFVKDFSGNASCHPPEAKTWASRPQVPEPRPQAPDLYDDDLEFRPPSRPQSSDNQQYFCAPAPLSPSARPRSPWGKLDPYDSSEDDKEYVGFATLPNQVHRKSVKKGFDFTLMVAGESGLGKSTLVNSLFLTDLYRDRKLLGAEERIMQTVEITKHAVDIEEKGVRLRLTIVDTPGFGDAVNNTECWKPVAEYIDQQFEQYFRDESGLNRKNIQDNRVHCCLYFISPFGHGYGPSLRLLAPPGAVKGTGQEHQGQGCH"}, "B2": {"name": "AU5-ARTS (other)", "chain": "B1 chain", "notes": "Expressed in transfected COS-7 cells and used as lysate or stained in cells; also called pEF1-AU5-ARTS; AU5-tagged ARTS; not shown: AU5 tag attached to the N' terminus of ARTS"}, "B3": {"name": "Recombinant ARTS protein (TNT-Quick Coupled Transcription/Translation System) (protein)", "chain": "B1 chain"}}, "key": {"[1]": {"biological_target": "Myc epitope-tagged wild-type XIAP (Homo sapiens (Human)) (UniProt P98170)", "assay": "GST-ARTS pull-down from lysate of COS-7 cells transfected with myc-tagged XIAP, Western blot (FIG. 3A-B)"}, "[2]": {"biological_target": "Myc epitope-tagged wild-type XIAP (Homo sapiens (Human)) (UniProt P98170)", "assay": "GST-ARTS pull-down from lysate of COS-7 cells transfected with mycXIAP, Western blot"}, "[3]": {"biological_target": "GST-XIAP fusion protein (Homo sapiens (Human)) (UniProt P98170)", "assay": "GST-XIAP pull-down from lysate of COS-7 cells transfected with AU5-ARTS, Western blot with anti-AU5 (FIG. 3C)"}, "[4]": {"biological_target": "GST-XIAP fusion protein (Homo sapiens (Human)) (UniProt P98170)", "assay": "GST-XIAP pull-down from lysate of COS-7 cells transfected with AU5-ARTS, Western blot"}, "[5]": {"biological_target": "GST-XIAP fusion protein (Homo sapiens (Human)) (UniProt P98170)", "assay": "GST-XIAP pull-down of in vitro translated ARTS, Western blot with anti-ARTS; GST alone as negative control"}, "[6]": {"biological_target": "GST-XIAP fusion protein (Homo sapiens (Human)) (UniProt P98170)", "assay": "GST-XIAP pull-down of in vitro translated ARTS, Western blot"}}, "note": "No constants are given. Whether binding was seen depends on the method and setting. Binding seen in cells or lysates may run through a third protein. Some results given as binding are weak or reduced against the parent protein; the word gives no strength. For part of these data: Where a sequence is shown, tags or fusion partners need not be part of it."}
{"binder": "B1", "values": [{"measurement": "binding", "setting": "[1]", "result": "binds"}, {"measurement": "binding", "setting": "[2]", "result": "binds"}]}
{"binder": "B2", "values": [{"measurement": "binding", "setting": "[3]", "result": "binds"}, {"measurement": "binding", "setting": "[4]", "result": "binds"}]}
{"binder": "B3", "values": [{"measurement": "binding", "setting": "[5]", "result": "binds"}, {"measurement": "binding", "setting": "[6]", "result": "binds"}]}
